Positions count from the first letter of the chain named. No constants are given. Whether binding was seen depends on the method and setting. Some results given as binding are weak or reduced against the parent protein; the word gives no strength.
B1: Anti-HNL MAB1 (antibody, V domains shown)
VH: VQLQESGPDLVAPSQSLSITCTVSGFSLSSYGVHWVRQPPGKGLEWLIVMWSDGSTTSNSALKSRLSISKDNSKSQVFLKVNSLQSDDTAIYYCARHYGYFTMDYWGQGTSVTVSS
VL: DIVMTQTPATLSVTPGDSVSLSCRASQSIITDLHWYQQRSHESPRLLIKSASQSISGIPSRFSGSGSGTDFTLTINSVETEDFGMYFCQQSNSWPLTFGAGTKLELKR
B2: Anti-HNL MAB2 (antibody, V domains shown)
VH: EVQLEESGPGLVAPSQSLSITCTISGFSLTSYGIHWLRQPPGKDLEWLVVIWGDGSTTSNSALKSRLSISKDNSKSQVFFKMSGLQTDDTAIYYCARHRYSDYHAMDYWGPGTSVTVS
VL: DIVLTQSTSSLSVSLGDRVTINCRASQDISNYLNWYQEKPDGTVKLLIYFTSRLHSGVPSRFSGSGSGTDYSLTITNLEQEDIATYFCQQGNTLPWTFGGGTKLEIKR
B3: Anti-HNL MAB3 (antibody, V domains shown)
VH: EVKLQESGPGLVAPSQSLSITCTISGFSLTSYGIHWLRQPPGKDLEWLVVIWGDGSTTSNSALKSRLSISKDNSKSQVFFKMSGLQTDDTAIYYCARHRYSDYHAMDYWGPGTSVTVSS
VL: B2 VL with S7T

Sequences of proteins named here, by UniProt entry; tags and fusion partners are left off. A change or cut given only in a name is not applied to a line headed by its entry.
UniProt P80188: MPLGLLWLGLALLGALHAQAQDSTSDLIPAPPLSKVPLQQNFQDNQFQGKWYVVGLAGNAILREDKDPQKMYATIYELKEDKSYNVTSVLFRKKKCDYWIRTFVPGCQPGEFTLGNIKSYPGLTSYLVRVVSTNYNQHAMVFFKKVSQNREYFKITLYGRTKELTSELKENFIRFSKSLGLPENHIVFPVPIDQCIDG

Molecular target: Human neutrophil lipocalin (HNL) (human) (UniProt P80188)
Assay: K200 chemical cross-linking, High-Mass MALDI ToF MS of antibody/antigen mix

binding, binds:
B1, B2, B3

Molecular target: Human neutrophil lipocalin (HNL) (human) (UniProt P80188)
Assay: competition with pepsin peptides of HNL, cross-linking and High-Mass MALDI MS

binding, binds:
B1, B2, B3

— patent publication US20170356921A1
